Reference: patent US20160270687A1 (priority 2013, published 2016)

Experiment: peptide synthesis
Conditions: conjugation step

C-GFTQPETGTDNDLWSVDNEK
conjugation yield: 68%
